The values that follow come from PubChem BioAssay AID330 (DTP/NCI, 2004).

Structures are written as SMILES. The list is a part of this screen's results and no random one: it is rich in T/C values a quarter to a half above the control, in often repeated tests (any T/C) and in doses without a T/C. Further doses and runs are listed elsewhere. T/C is the treated group as % of the vehicle group. Some entries give survivors of the animals treated and no T/C: the source files T/C as zero there, which appears to mark a toxic dose or a test without result, not a measured value. Some doses without a T/C left all or most animals alive at the check, yet need not have been tolerated: survival well below the control is almost never listed, so the zero probably covers shortened survival too. Survivors were counted at the toxicity check, usually on the fifth day, unless a day is given; later deaths do not show. Schedule codes are those of the source, taken here to give the interval after Q, in days (D) or hours (H), and the number of doses after X. Some doses were run more than once; the results are listed from low to high. Where survival is the endpoint, this PubChem deposit counts one and a half times the control or more as active, and values a quarter to a half above the control carry no call in these data; other NCI protocols may use other cut-offs. Some T/C values are followed by the survivors on the day toxicity was checked, most often the fifth; without a count, all were alive then.

For this assay, the system named is P388 leukemia ip, CD2F1 mice, survival T/C. Nature of the assay: NCI In Vivo Anticancer Drug Screen. Data for tumor model P388 Leukemia (intraperitoneal) in CD2F1 (CDF1) mice. Particulars: T/C endpoint: median survival time, higher T/C = longer survival.
[1] abbreviates: dose: 25.0 mg/kg/injection, schedule: Q01DX005 (ip), vehicle: saline.
[2] abbreviates: dose: 50.0 mg/kg/injection, schedule: Q01DX005 (ip), vehicle: saline.
[3] abbreviates: dose: 100.0 mg/kg/injection, schedule: Q01DX005 (ip), vehicle: saline.
[4] abbreviates: dose: 200.0 mg/kg/injection, schedule: Q01DX005 (ip), vehicle: saline.
[5] abbreviates: dose: 100.0 mg/kg/injection, schedule: Q01DX009 (ip), vehicle: saline.
[6] abbreviates: dose: 200.0 mg/kg/injection, schedule: Q01DX009 (ip), vehicle: saline.
Where [7] appears, read: dose: 50.0 mg/kg/injection, schedule: Q01DX009 (ip), vehicle: saline with Tween-80.
Setting [8] is: dose: 100.0 mg/kg/injection, schedule: Q01DX009 (ip), vehicle: saline with Tween-80.
Setting [9] is: dose: 200.0 mg/kg/injection, schedule: Q01DX009 (ip), vehicle: saline with Tween-80.
[10] abbreviates: dose: 240.0 mg/kg/injection, schedule: Q01DX005 (ip), vehicle: saline with Tween-80.
Where [11] appears, read: dose: 200.0 mg/kg/injection, schedule: Q01DX001 (ip), vehicle: saline with Tween-80.

On to `CS/C(=C/c1ccc2ccccc2[n+]1C)N1CCCC1`, for which the survivor count (dose: 3.13 mg/kg/injection, schedule: Q01DX005 (ip), vehicle: saline) is on record as 0 of 5; the survivor count (dose: 6.25 mg/kg/injection, schedule: Q01DX005 (ip), vehicle: saline) was 0 of 6; the survivor count (dose: 12.5 mg/kg/injection, schedule: Q01DX005 (ip), vehicle: saline) is given as 0 of 6; the survivor count under setting [1] is listed as 0 of 6; the survivor count under setting [2] is recorded as 0 of 6; the survivor count under setting [3] is 0 of 6. For the same compound, the survivor count under setting [4] is listed as 0 of 6.
`CCCC/C(C)=N/NC(=S)SC`: the survivor count is 0 of 6 (dose: 50.0 mg/kg/injection, schedule: Q01DX009 (ip), vehicle: saline); 1 of 6 under setting [5]; 0 of 6 under setting [6].
As for `O=C(c1ccc(Cl)cc1)c1cc2c(ccc3ccccc32)oc1=O`, the survivor count runs as follows: under setting [7], 6 of 6; under setting [8], 6 of 6; under setting [9], 6 of 6.
Take `CCC(C)CCC/C=C/CC(=O)NC(CC(=O)O)C(=O)NC(C(=O)NC(CC(=O)O)C(=O)NCC(=O)NC(CC(=O)O)C(=O)NCC(=O)NC(C(=O)NC(C(=O)N1CCCC1C(=O)NC(C)C1NC(=O)C2CCCCN2C1=O)C(C)C)C(C)N)C(C)C(=O)O` (centres undefined): the survivor count (dose: 200.0 mg/kg/injection, schedule: Q01DX009 (ip), vehicle: saline + alcohol) was 6 of 6 and the survivor count (dose: 400.0 mg/kg/injection, schedule: Q01DX009 (ip), vehicle: saline + alcohol) is reported as 1 of 6.
`CNC(=O)Nc1[nH]c(=O)ncc1Cl`: the survivor count under setting [10] was 4 of 6.
With `NC1CC2(CCC1=O)c1ccccc1-c1ccccc12` (centres undefined), the survivor count under setting [11] is 2 of 6.
On to `ClCCN(CCCl)c1ccc(/C=N/Nc2c3ccccc3nc3ccccc23)cc1`, for which the survivor count reads like this: (dose: 25.0 mg/kg/injection, schedule: Q01DX009 (ip), vehicle: DMSO) 1 of 6; (dose: 50.0 mg/kg/injection, schedule: Q01DX009 (ip), vehicle: DMSO) 0 of 6; (dose: 100.0 mg/kg/injection, schedule: Q01DX009 (ip), vehicle: DMSO) 0 of 6; (dose: 200.0 mg/kg/injection, schedule: Q01DX009 (ip), vehicle: DMSO) 0 of 5.
For `COc1cc(NCCC2CCCCN2)c2ncccc2c1` (centres undefined), the survivor count by setting is: under setting [1], 0 of 5; under setting [2], 0 of 5; under setting [3], 0 of 5; under setting [4], 0 of 5.
Turning to `C/C=C1/CNC2Cc3c([nH]c4ccccc34)C(c3ccc4c5c([nH]c4c3)C3CC4CC(CC)C3N(CC5)C4)CC1C2C(=O)OC` (centres undefined), where the note is “dose: 10.0 mg/kg/injection, schedule: Q01DX009 (ip), vehicle: saline”, the survivor count is reported as 5 of 6.
For `COc1ccc(/C=C/C(=O)C(C)(C)CN(C)CCN(C)C)cc1`, the survivor count under setting [10] was 0 of 6.
For `CCCOc1ccc(-c2nc(-c3ccc(N=Cc4ccc(N(CCOS(C)(=O)=O)CCOS(C)(=O)=O)cc4C)cc3)cs2)cc1`, the T/C was 138 % of control [5 of 6 alive] (dose: 1.56 mg/kg/injection, schedule: Q01DX009 (ip), vehicle: saline with Tween-80) and 143 % of control (dose: 25.0 mg/kg/injection, schedule: Q01DX009 (ip), vehicle: saline with Tween-80). Moreover, the survivor count under setting [7] is listed as 6 of 6, the survivor count under setting [8] is 6 of 6 and the survivor count under setting [9] is on record as 6 of 6.
On to `Nc1ncnc2c1ncn2C1OC(CO)CC1O` (centres undefined), for which the T/C (dose: 37.5 mg/kg/injection, schedule: Q01DX009 (ip), vehicle: Klucel (hydroxypropylcellulose) (HPC)) was 131 % of control and the T/C (dose: 75.0 mg/kg/injection, schedule: Q01DX009 (ip), vehicle: Klucel (hydroxypropylcellulose) (HPC)) is 130 % of control [5 of 6 alive]. Also, the survivor count runs as follows: (dose: 150.0 mg/kg/injection, schedule: Q01DX009 (ip), vehicle: Klucel (hydroxypropylcellulose) (HPC)) 3 of 6 and 5 of 6; (dose: 300.0 mg/kg/injection, schedule: Q01DX009 (ip), vehicle: Klucel (hydroxypropylcellulose) (HPC)) 0 of 6.
Turning to `Nc1cccc(=O)[nH]1`, the T/C by setting is: under setting [5], 126 % of control; under setting [6], 127 % of control; (dose: 600.0 mg/kg/injection, schedule: Q01DX009 (ip), vehicle: saline) 125 and 137 % of control.
With `NCCc1ccncc1`, the survivor count (dose: 240.0 mg/kg/injection, schedule: Q01DX005 (ip), vehicle: suspension in saline) is given as 3 of 6.
As for `O=C(Nc1ccc(C(=O)O)cc1)Nc1nccs1`, the T/C (dose: 25.0 mg/kg/injection, schedule: Q01DX009 (ip), vehicle: distilled water + Tween-80) was 125 % of control; the T/C (dose: 50.0 mg/kg/injection, schedule: Q01DX009 (ip), vehicle: distilled water + Tween-80) is 143 % of control; the T/C (dose: 100.0 mg/kg/injection, schedule: Q01DX009 (ip), vehicle: distilled water + Tween-80) was 131 % of control; the T/C (dose: 200.0 mg/kg/injection, schedule: Q01DX009 (ip), vehicle: distilled water + Tween-80) was 126 % of control. Under “dose: 400.0 mg/kg/injection, schedule: Q01DX009 (ip), vehicle: distilled water + Tween-80”, the survivor count is 2 of 6 and 3 of 6.
With `CCOC(=O)c1ccc(N=NN2CN3CN(C2)CN(N=Nc2ccc(C(=O)OCC)cc2)C3)cc1`, the survivor count is 6 of 6 (dose: 200.0 mg/kg/injection, schedule: Q04DX002 (ip), vehicle: Klucel (hydroxypropylcellulose) (HPC)) and 6 of 6 (dose: 400.0 mg/kg/injection, schedule: Q04DX002 (ip), vehicle: Klucel (hydroxypropylcellulose) (HPC)).
For `Nc1ccccc1N=Cc1c(O)c2ccccc2oc1=O`, the survivor count (dose: 200.0 mg/kg/injection, schedule: Q01DX005 (ip), vehicle: saline with Tween-80) is 4 of 6.
Turning to `[Cl][Pd][Cl].[NH-]C(C(=O)OCc1ccccc1)c1ccccc1.[NH-]C(C(=O)OCc1ccccc1)c1ccccc1` (centres undefined), the survivor count (dose: 200.0 mg/kg/injection, schedule: Q04DX003 (ip), vehicle: saline) was 6 of 6 and the survivor count (dose: 400.0 mg/kg/injection, schedule: Q04DX003 (ip), vehicle: saline) is given as 6 of 6.
As to `CCCCCCCCCc1cc(=O)[nH]c(=S)[nH]1`, the survivor count (dose: 240.0 mg/kg/injection, schedule: Q01DX005 (ip), vehicle: Klucel (hydroxypropylcellulose) (HPC)) is 6 of 6.
For `Fc1ccc2[nH]cc(C3CCCN4CCCCC34)c2c1` (centres undefined), the survivor count is given as 1 of 6 under setting [11] and 0 of 6 (dose: 400.0 mg/kg/injection, schedule: Q01DX001 (ip), vehicle: saline with Tween-80).
As for `C/C(=N\N=Nc1ccc(N(C)C)cc1)c1ccccc1`, the survivor count (dose: 240.0 mg/kg/injection, schedule: Q01DX005 (ip), vehicle: Klucel + Tween-80) is 2 of 6.
